In paper PMC3379943:
These are yes or no findings as the source states them, for the method shown. In cells and extracts the contact can be indirect. Some entries that bind do so weakly or less than the wild type. For part of these data: Where a sequence is shown, tags or fusion partners need not be part of it. One block for each binder: values may come before it.

Protein sequences, listed by entry. Tags and fused reporters are not part of them. Residues count along the entry.
UniProt P98156, residues 28-873: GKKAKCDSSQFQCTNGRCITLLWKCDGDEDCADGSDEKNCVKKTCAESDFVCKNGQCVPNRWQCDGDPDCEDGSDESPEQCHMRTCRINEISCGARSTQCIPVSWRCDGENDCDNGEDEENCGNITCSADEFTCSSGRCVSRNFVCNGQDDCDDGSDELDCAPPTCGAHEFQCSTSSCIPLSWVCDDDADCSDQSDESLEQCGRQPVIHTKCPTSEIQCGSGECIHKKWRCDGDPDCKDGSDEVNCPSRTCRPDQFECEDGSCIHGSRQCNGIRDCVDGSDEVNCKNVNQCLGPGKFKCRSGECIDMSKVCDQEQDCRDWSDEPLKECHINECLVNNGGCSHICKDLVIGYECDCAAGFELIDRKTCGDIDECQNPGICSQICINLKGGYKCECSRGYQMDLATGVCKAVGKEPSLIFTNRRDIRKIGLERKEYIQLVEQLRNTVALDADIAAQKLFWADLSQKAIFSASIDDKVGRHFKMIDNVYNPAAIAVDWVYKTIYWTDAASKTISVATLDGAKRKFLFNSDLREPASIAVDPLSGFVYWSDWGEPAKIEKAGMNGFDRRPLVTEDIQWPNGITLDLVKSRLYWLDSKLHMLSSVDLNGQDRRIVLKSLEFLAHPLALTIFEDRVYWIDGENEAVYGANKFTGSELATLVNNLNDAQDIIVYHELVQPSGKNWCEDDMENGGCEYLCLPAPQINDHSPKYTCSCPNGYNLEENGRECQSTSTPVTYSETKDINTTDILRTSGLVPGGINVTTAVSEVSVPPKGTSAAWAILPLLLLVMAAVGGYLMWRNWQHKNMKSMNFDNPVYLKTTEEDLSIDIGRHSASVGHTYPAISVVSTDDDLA

Assays:
full length VLDLR-myc = full length VLDLR-myc (UniProt P98155); test: co-IP; COS7 cells co-transfected with VLDLR and FE65 constructs; cell lysates (100-200 ug) immunoprecipitated by the tag or 5F3 (anti-HA, anti-myc, 5F3, anti-GFP) and the precipitate probed for the other protein's tag
[1] = target: full length VLDLR (HA-tagged on the C terminal) (UniProt P98155); test: as above
[2] = target: VLDLR, endogenous in mouse brain (mouse (endogenous in brain)) (UniProt P98156); test: co-IP; mouse whole brain lysates (100 ug), IP buffer 50 mM Tris-HCl pH 8.0, 0.15 M NaCl, 1% Nonidet P-40, overnight at 4°C with antibody (5F3, anti-FE65 or C1/6.1; IgG as control) and protein G-Sepharose; also lysates of 13 month old FE65 knockout mice against wild-type littermates (APP band with VLDLR decreased)

binding (full length VLDLR-myc): binds
B1: full length FE65-GFP (protein, UniProt O00213 1-710)
chain: MSVPSSLSQSAINANSHGGPALSLPLPLHAAHNQLLNAKLQATAVGPKDLRSAMGEGGGPEPGPANAKWLKEGQNQLRRAATAHRDQNRNVTLTLAEEASQEPEMAPLGPKGLIHLYSELELSAHNAANRGLRGPGLIISTQEQGPDEGEEKAAGEAEEEEEDDDDEEEEEDLSSPPGLPEPLESVEAPPRPQALTDGPREHSKSASLLFGMRNSAASDEDSSWATLSQGSPSYGSPEDTDSFWNPNAFETDSDLPAGWMRVQDTSGTYYWHIPTGTTQWEPPGRASPSQGSSPQEESQLTWTGFAHGEGFEDGEFWKDEPSDEAPMELGLKEPEEGTLTFPAQSLSPEPLPQEEEKLPPRNTNPGIKCFAVRSLGWVEMTEEELAPGRSSVAVNNCIRQLSYHKNNLHDPMSGGWGEGKDLLLQLEDETLKLVEPQSQALLHAQPIISIRVWGVGRDSGRERDFAYVARDKLTQMLKCHVFRCEAPAKNIATSLHEICSKIMAERRNARCLVNGLSLDHSKLVDVPFQVEFPAPKNELVQKFQVYYLGNVPVAKPVGVDVINGALESVLSSSSREQWTPSHVSVAPATLTILHQQTEAVLGECRVRFLSFLAVGRDVHTFAFIMAAGPASFCCHMFWCEPNAASLSEAVQAACMLRYQKCLDARSQASTSCLPAPPAESVARRVGWTVRRGVQSLWGSLKPKRLGAHTP

binding [1]: binds
B2: full length FE65 (myc-tagged on the C terminal) (protein, UniProt O00213 1-710)
chain: MSVPSSLSQSAINANSHGGPALSLPLPLHAAHNQLLNAKLQATAVGPKDLRSAMGEGGGPEPGPANAKWLKEGQNQLRRAATAHRDQNRNVTLTLAEEASQEPEMAPLGPKGLIHLYSELELSAHNAANRGLRGPGLIISTQEQGPDEGEEKAAGEAEEEEEDDDDEEEEEDLSSPPGLPEPLESVEAPPRPQALTDGPREHSKSASLLFGMRNSAASDEDSSWATLSQGSPSYGSPEDTDSFWNPNAFETDSDLPAGWMRVQDTSGTYYWHIPTGTTQWEPPGRASPSQGSSPQEESQLTWTGFAHGEGFEDGEFWKDEPSDEAPMELGLKEPEEGTLTFPAQSLSPEPLPQEEEKLPPRNTNPGIKCFAVRSLGWVEMTEEELAPGRSSVAVNNCIRQLSYHKNNLHDPMSGGWGEGKDLLLQLEDETLKLVEPQSQALLHAQPIISIRVWGVGRDSGRERDFAYVARDKLTQMLKCHVFRCEAPAKNIATSLHEICSKIMAERRNARCLVNGLSLDHSKLVDVPFQVEFPAPKNELVQKFQVYYLGNVPVAKPVGVDVINGALESVLSSSSREQWTPSHVSVAPATLTILHQQTEAVLGECRVRFLSFLAVGRDVHTFAFIMAAGPASFCCHMFWCEPNAASLSEAVQAACMLRYQKCLDARSQASTSCLPAPPAESVARRVGWTVRRGVQSLWGSLKPKRLGAHTP

binding [2]: binds
B3: FE65, endogenous in mouse brain (protein, UniProt Q9QXJ1 1-710)
chain: MSVPSSLSQSAINANSHGGPALSFPLPLHAAHNQLLNAKLQATAVVPKDLRSAMGEGSVPEPGPANAKWLKEGQNQLRRAATAHRDQNRNVTLTLAEEASQEAETAPLGPKGLMHLYSELELSAHNAANRGLHGSALIINTQEQGPDEGEEKAAGEAEEDDEDEEEEEEEEDLSSPPGLPEPLENVEVPSGPQALTDGPREHSKSASLLFGMRNSAASDEDSSWATLSQGSPSYGSPEDTDSFWNPNAFETDSDLPAGWMRVQDTSGTYYWHIPTGTTQWEPPGRASPSQGSSPQEESQLTWTGFAHQEGFEEGEFWKDEPSEEAPMELGLKDPEEATLSFPAQSLSPEPVPQEEEKLSQRNANPGIKCFAVRSLGWVEMTEEELAPGRSSVAVNNCIRQLSYHKNNLHDPMAGGWGEGKDLLLQLEDETLKLVEPQNQTLLHAQPIVSIRVWGVGRDSGSNRDFAYVARDKLTQMLKCHVFRCEAPAKNIATSLHEICSKIMSERRNARCLVNGLSLDHSKLVDVPFQVEFPAPKNELVQKFQVYYLGNVPVAKPVGVDVINGALESVLSSSSREQWTPSHVSVAPATLTILHQQTEAVLGECRVRFLSFLAVGRDVHTFAFIMAAGPASFCCHMFWCEPNAASLSEAVQAACMLRYQKCLDARSQTSTSCLPAPPAESVARRVGWTVRRGVQSLWGSLKPKRLGSQTP
